The assay deals with T1, CTL2-GFP (C. trachomatis L2/434/Bu, GFP-expressing).
T1 construct: L2/434/Bu, GFP-expressing
Further details: species or system HeLa; Intracellular C. trachomatis growth in HeLa cells, bulk GFP fluorescence relative to DMSO. The conditions noted are these: bulk GFP, single well, 28.5 h, 10 µM, inhibitor.

Read-outs that look alike come from different tables or passages of the source. The list shows a part of the results.

In the case of `FC(F)(F)c1cc(-c2cn3ccnc3c(N3CCOCC3)n2)cc(C(F)(F)F)c1` [CBK066396], the “% of control remaining” value was 97.55%.

On to `CC(=O)NCCCCCC(=O)N1CCN(c2ccc(C(F)(F)F)cc2)CC1` [CBK091312], for which the “% of control remaining” value is on record as 119.201%.

For the compound `Cc1cc(C(=O)Nc2ccccc2N2CCOCC2)c(C)o1` [CBK057243], the “% of control remaining” value came out at 85.4466%.

Take `O=C(NC(/C=C/c1ccccc1)c1cc([N+](=O)[O-])c2cccnc2c1O)C1CCCCC1` (stereo not drawn) [CBK265333]: the “% of control remaining” value is recorded as 100.158%.

In the case of `Cc1nn(Cc2c(F)cccc2Cl)c(C)c1NC(=O)CCCC(=O)O` [CBK286838], the “% of control remaining” value is 111.226%.

For the compound `Cc1ccccc1CN1CCC(NC(=O)Cn2cc(Br)ccc2=O)CC1` [CBK305716], the “% of control remaining” value came to 125.922%.

As for `O=[N+]([O-])c1ccc(OCCOc2nccnc2N2CCNCC2)c2ncccc12` [CBK000623C], the “% of control remaining” value came out at 134.973%.

`O=C(O)c1ccc(Br)c(S(=O)(=O)Nc2ccc(Cl)cc2)c1` [CBK263247]: the “% of control remaining” value turned out to be 97.2912%.

With `CC(NC(=O)c1ccccc1)c1nnc(SCC(=O)c2ccccc2)n1C` (stereo not drawn) [CBK269644], the “% of control remaining” value is on record as 134.797%.

`Cc1cc(COc2nccnc2OC2CCN(Cc3ccccc3F)CC2)no1` [CBK082948T]: the “% of control remaining” value stood at 80.8075%.

As to `NS(=O)(=O)c1ccc(CCNC(=O)c2ccc(C#Cc3ccccc3)cc2)cc1` [CBK263089], the “% of control remaining” value is 100%.

Turning to `O=C(Nc1cccnc1)c1cnc2cc(C(F)(F)F)ccc2c1O` [CBK107474], for the setting “Bulk GFP fluorescence”, the “% of control remaining” value came out at 100%.

On to `Cc1onc(-c2ccccc2)c1-c1n[nH]c(=S)o1` [CBK009044], for which the “% of control remaining” value amounted to 131.054%.

For `CCS(=O)(=O)N1CCc2cc(-c3csc(-c4cnn(C)c4)n3)ccc21` [CBK305560], the “% of control remaining” value came out at 114.281%.

In the case of `CC(=O)Nc1nc2cc3c(cc2s1)OCCO3` [CBK287618], the “% of control remaining” value was found to be 124.93%.

As for `O=C(Cc1ccc(Cl)cc1Cl)NCCc1c[nH]c2ccc(Cl)cc12` [CBK159744], the “% of control remaining” value was found to be 109.942%.

As for `CCOC(=O)c1cnn2c(N)c(C(N)=O)nnc12` [CBK023694], the “% of control remaining” value is given as 125.73%.

Consider `CC(C)Nc1cc(OC2CCN(C)CC2)ncn1` [CBK113280], for which the “% of control remaining” value is recorded as 114.155%.

With `COc1ccc(Oc2nccc(N3CCCN(CCCO)CC3)n2)cc1OC` [CBK084158], the “% of control remaining” value came out at 124.407%.

For the compound `CCCNC(=O)CSc1ncccc1C(=O)O` [CBK287202], the “% of control remaining” value is listed as 132.11%.

As for `O=C(/C=C/c1cccc2ccccc12)N1CCCCCC1` [CBK264092], the “% of control remaining” value turned out to be 108.93%.

`O=C(CCc1cccnc1)N1CCC(F)CC1` [CBK200275]: the “% of control remaining” value was determined as 100.317%.

Turning to `CN1CCC(NC(=O)c2cccc(NC(=O)C3CCCCC3)c2)C1=O` (stereo not drawn) [CBK306228], the “% of control remaining” value was 109.383%.

Consider `O=C(O)C(Cc1ccccc1)N1C(=O)c2cccc([N+](=O)[O-])c2C1=O` (stereo not drawn) [CBK115372], for which the “% of control remaining” value is recorded as 112.157%.

As for `Cc1csc(NC(=O)c2cccn(Cc3cccc([N+](=O)[O-])c3)c2=O)n1` [CBK294414], the “% of control remaining” value worked out at 159.45%.

`CC(=O)c1ccc(-c2cnc3[nH]c(=O)n(C4CCCCC4)c3n2)s1` [CBK064382]: the “% of control remaining” value amounted to 104.43%.

For `O=C(O)C1CC1C(=O)N1CCC2(CC1)OCCc1c2[nH]c2ccccc12` (stereo not drawn) [CBK047167], the “% of control remaining” value is 118.723%.

Consider `O=C(O)CCCC(=O)Nc1cc([N+](=O)[O-])ccc1O` [CBK265592], for which the “% of control remaining” value turned out to be 124.598%.

Take `O=C(NCCc1cccs1)N1CCC2(CC1)OCCc1c2[nH]c2ccccc12` [CBK047129]: the “% of control remaining” value came to 137.549%.

Take `Cc1sc2nc(SCc3nc4ccccc4[nH]3)n(Cc3ccco3)c(=O)c2c1C` [CBK267554]: the “% of control remaining” value worked out at 95.609%.

For `CNC(=O)NC(=O)C(C)NCC1(c2cc(C)ccc2OC)CCOCC1` (stereo not drawn) [CBK306318], the “% of control remaining” value turned out to be 110.709%.

As for `O=P(O)(O)Cc1ccccc1-c1ccccc1` [CBK012659], the “% of control remaining” value is 84.5632%.

With `Brc1ncccc1OCc1ccccc1` [CBK001458], the “% of control remaining” value was 81.3688%.

For `Cc1ccc(-c2nnc([C@H]3CCN(Cc4ccc(CO)o4)C3)o2)cc1` [CBK289399], the “% of control remaining” value was determined as 120.184%.

Regarding `[O-][n+]1cc(-c2ccccc2)[n+]([O-])c2c1CCCC2` [CBK264847], the “% of control remaining” value was found to be 100%.

`O=C(CN1CCNCC1)Nc1ccc(Oc2ccccc2)cc1` [CBK267191C]: the “% of control remaining” value stood at 177.632%.

`Cc1nc2c(c(=O)[nH]1)CC[C@@H]1CN(C(=O)c3ccccc3F)C[C@H]21` [CBK284410]: the “% of control remaining” value was 88.9893%.

With `C=CCn1c(Cc2csc(NC(=O)c3ccc(OC(F)F)cc3)n2)n[nH]c1=S` [CBK295338], the “% of control remaining” value amounted to 134.357%.

With `CN(C)S(=O)(=O)c1ccc(C(=O)C2=C(O)C(=O)N(Cc3cccnc3)C2c2ccc(F)cc2)cc1` (stereo not drawn) [CBK264715], the “% of control remaining” value is on record as 100%.

Turning to `O=C1NC2(CCc3ccccc31)CCN(C(=O)c1ccc(F)cc1)C2` (stereo not drawn) [CBK285308], the “% of control remaining” value was 140.68%.

On to `O=C(NCc1ccccn1)c1cc2cc(F)ccc2[nH]1` [CBK107276], for which the “% of control remaining” value came to 103.46%.

`COc1ccc(Cn2cnc3[nH]ncc3c2=O)cc1` [CBK288049]: the “% of control remaining” value came out at 141.798%.

Consider `Fc1ccc(N(CCCN2CCN(c3ncccn3)CC2)c2ccc(F)cc2)cc1` [CBK025127C], for which the “% of control remaining” value was 92.1998%.

Take `COc1ccc(Nc2nc(-c3cc(C(C)C)ccc3OC)cn3ccnc23)cn1` [CBK066354]: the “% of control remaining” value is given as 176.033%.

As for `Cc1cc(S(=O)(=O)N2CCCCC2)ccc1OCC(=O)O` [CBK269254], the “% of control remaining” value was 143.857%.

Consider `COCc1ccc(C(=O)NCC2CCCOC2)o1` (stereo not drawn) [CBK282188], for which the “% of control remaining” value was found to be 142.903%.

With `c1ccc(-c2cc(-c3ccccc3)n3nc(Cc4nc5nc(-c6ccccc6)cc(-c6ccccc6)n5n4)nc3n2)cc1` [CBK261017], the “% of control remaining” value is 111.614%.

For the compound `Cn1c(=O)c2c(nc(CN3CCOCC3)n2CCN2CCOCC2)n(C)c1=O` [CBK269560], the “% of control remaining” value is on record as 120.033%.

Turning to `CC(C)N(C(=O)c1ccccc1-c1cnn2cccnc12)C(C)C` [CBK307701], the “% of control remaining” value stood at 92.6742%.

With `CN(Cc1ccccc1)C(C#N)c1c[nH]c2ccccc12` (stereo not drawn) [CBK087062], the “% of control remaining” value was 131.338%.

Consider `CS(=O)(=O)Nc1ccc(-c2ccccc2)c2ccccc12` [CBK083741], for which the “% of control remaining” value is 151.472%.

`CC(C)NC(=O)C1CCCN(c2nc3ccccc3n2C)C1` (stereo not drawn) [CBK282373]: the “% of control remaining” value is 120.228%.

Turning to `O=C(NCCNc1cnccn1)c1cncc(Br)c1` [CBK304278], the “% of control remaining” value was found to be 83.8703%.

Regarding `CCOC(=O)CNC(=O)c1cc2ccccc2c(=O)o1` [CBK058083], the “% of control remaining” value is recorded as 114.346%.

For `CC(=O)c1ccc(-c2nccnc2NCC2CC2)s1` [CBK037975], the “% of control remaining” value came out at 109.118%.

In the case of `Cc1cc(C)nc(N/C(=N\C(=O)Nc2ccccc2)NCc2cccnc2)n1` [CBK132681], the “% of control remaining” value is given as 90.5859%.

Regarding `O=C(NCCC1=CCCCC1)Nc1ccc(SC(F)(F)F)cc1` [CBK043725], the “% of control remaining” value is 112.483%.

Turning to `Cc1c(C(=O)O)c(-c2ccc(Cl)cc2)cn1CCO` [CBK286959], the “% of control remaining” value came out at 130.268%.

For the compound `COc1ccccc1N1CCN(C(=O)CCC(=O)c2cccs2)CC1` [CBK091498], the “% of control remaining” value is listed as 112.917%.

In the case of `COc1cc(C(=O)N2CCC(N(C)C)C2)ccc1Nc1cncc(-c2cc3ccccc3[nH]2)n1` (stereo not drawn) [CBK161475], the “% of control remaining” value was 127.261%.

As to `Nc1nc(=O)c2cnc3ccc(C(=O)O)cc3c2s1` [CBK291239], the “% of control remaining” value turned out to be 159.45%.

For `Cc1nnc2nc(-c3cccc(Cl)c3Cl)[nH]n12` [CBK263845], the “% of control remaining” value stood at 100%.

Take `Nc1ncc(-c2ccc(C(=O)N3CCOCC3)cc2)cc1C(=O)NCc1ccc(S(N)(=O)=O)cc1` [CBK158597]: the “% of control remaining” value is 112.438%.

In the case of `Cc1nc(C)c(CC(=O)NC(c2ccncc2)c2cccs2)s1` (stereo not drawn) [CBK281439], the “% of control remaining” value came to 117.164%.

Regarding `COc1cc(NC(=S)P(=O)(c2ccccc2)c2ccccc2)c(OC)cc1Cl` [CBK021976], the “% of control remaining” value is given as 111.012%.

Consider `N#Cc1ccncc1NCc1ccccc1CN1CCCC1CO` (stereo not drawn) [CBK304021], for which the “% of control remaining” value is recorded as 162.212%.

Regarding `CC(C)CC(NC(=O)N1CCOc2ccc(Cl)cc2C1)c1ncnn1C` (stereo not drawn) [CBK306544], the “% of control remaining” value is 97.4733%.

As for `CC(=O)Nc1ccc(S(=O)(=O)Oc2ccc(/C=C3\SC(=N)NC3=O)cc2Cl)cc1` [CBK265357], the “% of control remaining” value is listed as 102.753%.

On to `CC1=C[C@@H](CNC(=O)c2ccccn2)[C@H](C(C)C)C[C@H]1CC(=O)N1CCCC1` [CBK289207], for which the “% of control remaining” value was 102.728%.

On to `COc1ccc(C(=O)NNC(=O)c2cccc(Cl)c2)cc1OC` [CBK261704], for which the “% of control remaining” value is on record as 101.806%.

As for `CCS(=O)(=O)c1ccc2oc([C@H]3CCN(S(=O)(=O)c4ccccc4)C3)nc2c1` [CBK289382], the “% of control remaining” value is listed as 124.395%.

For the compound `Cc1ccn(CC(=O)N2CC[C@H]3NC(=O)COc4ccccc4CCCC[C@@H]3C2)c(=O)c1` [CBK292045], the “% of control remaining” value is reported as 118.749%.

`Oc1ccc(-n2cc(-c3ccsc3)nn2)cc1` [CBK113093]: the “% of control remaining” value came to 143.195%.

On to `CCOc1ccsc1C(=O)NC1Cc2ccccc2C1` [CBK200359], for which the “% of control remaining” value is listed as 27.0076%.

In the case of `O=C(O)CCSc1nnc2[nH]c3ccccc3n12` [CBK265736], the “% of control remaining” value was 161.527%.

Turning to `CCCN1CCN(CC(=O)NCc2ccco2)CC1` [CBK270300], the “% of control remaining” value was found to be 145.756%.

Consider `COC(=O)CC1C(=O)NCCN1C(=O)COc1ccc(Cl)cc1` (stereo not drawn) [CBK264938], for which the “% of control remaining” value is 100%.

In the case of `CCn1c2ccccc2n2c(SC(C)C(=O)O)nnc12` (stereo not drawn) [CBK267079], the “% of control remaining” value came out at 157.767%.

On to `CCOc1ccc2c(c1)cc(C(=O)NCc1cc(CC)no1)n2C` [CBK281553], for which the “% of control remaining” value was determined as 106.67%.

`Cc1ccccc1-c1nnc(SC(C)C)n1CCN(C)S(C)(=O)=O` [CBK200088]: the “% of control remaining” value amounted to 114.63%.

Turning to `CCOC(=O)c1ccc(N2C(=O)CC(N3CCN(c4ncccn4)CC3)C2=O)cc1` (stereo not drawn) [CBK263306], the “% of control remaining” value amounted to 102.013%.
